Library screening results

Results are given as percent effect. The record does not define 0% and 100%; most values in the screen are far below 50% and negative numbers occur (in some assays of this library far below -100). This is an unselected part of the compounds tested. A dash means the value is not listed here; it may have been measured.

A: 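Whole-cell assay for inhibitors of Mycobacterium tuberculosis growth, labelled Cornell in the record; the read-out is not stated. The concentration is filed as 10 mM, unlikely as a test dose, so the dose is not known. The record gives no direction; compounds strong in two other growth screens of this library score well above the rest, so higher reads as stronger inhibition. About 53,000 compounds were tested under these conditions; 1.7% (about 900) showed 50% or more at least once.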
B: 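Assay on Mycobacterium tuberculosis, filed only as a heat shock assay from Cornell; the read-out is not stated. The concentration is filed as 10 mM, unlikely as a test dose, so the dose is not known. The record gives no direction; compounds that gave an IC50 in retests scored well above the rest, so higher reads as stronger inhibition. Size under these conditions: about 69,000 compounds, about 930 of them at 50% or above in at least one test.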

SMILES,A,B
Cc1noc(C)c1CNC(=O)N1CCC(NS(C)(=O)=O)CC1,-12.79,-11.33
O=C(O)C(F)(F)F.[H][C@]12CCN(c3ncc(CC)cn3)CC[C@@]1([H])S(=O)(=O)N(CCC(C)C)C2,12.12,-11.73
COCCN(CCOC)C(=O)Nc1cc(C(F)(F)F)c[nH]c1=O,3.413,-5.277
Cc1ccc(-n2ccnc2)c(C(=O)NCCOCC2CCCO2)c1 (stereo not shown),6.647,-9.157
COCC(O)CNc1ccc(C#N)cc1C(F)(F)F (stereo not shown),12.56,-0.2038
CC(C)C(=O)N1CCCC(c2cc(C(F)F)n3ncnc3n2)C1.Cl (stereo not shown),-8.001,-24.11
CCOC1CCN(CCc2nc(-c3cccc(Cl)c3)no2)CC1,-4.396,10.72
CC(NCC(=O)N(C)C1CC1)c1ccc(S(C)(=O)=O)c(F)c1 (stereo not shown),-,-29.35
[H][C@@]12CC[C@@](O)(c3ccc(C)cn3)[C@]1([H])CN(Cc1ccc(Cl)cc1Cl)C2,-26.87,-15.41
Cc1csc(N2CCN(C(=O)c3cc(C4CC4)[nH]n3)CC2)n1,-1.549,-4.784
[H][C@@]12C[C@@H](Oc3cncnc3)CN1CCN(C(=O)c1ccncc1)C2,-5.431,-1.901
O=C(NCc1cccnc1)C1=NOC2(CCCN(CCO)C2)C1 (stereo not shown),-14.43,-3.605
COCCOc1ccnc(-c2noc([C@@H]3CCCN3C3CCC3)n2)c1,15.57,-0.2875
[H][C@@]12C[C@H](NC(=O)COC)CN1[C@H](CCC(=O)NC1CC1)CNC2=O,-,-0.9537
COCCCNC(=O)Nc1ccc(OCc2noc(C3CC3)n2)cc1,1.635,-6.13
CCC(CNC(=O)c1ccccn1)N1CCc2ccccc2C1 (stereo not shown),-31.77,64.91
CCc1ncnc2c1CCN(c1ncc(F)cn1)CC2,24.94,5.471
CCS(=O)(=O)NC(C(=O)NC)c1ccc(F)c(F)c1 (stereo not shown),9.851,10.36
CCNC(=O)NC1CN(Cc2ccncc2Cl)C[C@@H]1OC (stereo partly shown),-12.27,-11.74
O=c1[nH][nH]cc1-c1ccnc(NCCc2ccc(F)cc2)n1,6.663,-3.911
Cc1nnsc1CN(C)Cc1ccc(C(=O)Nc2sccc2C#N)cc1,-,3.393
CCCNCc1ccc(-c2ccnc3[nH]ccc23)cc1,5.903,-5.632
CCCc1cnc(C)nc1N1CCC(Cn2cc(C(C)O)nn2)CC1 (stereo not shown),-6.475,-17.44
CCCNC(=O)NC(=O)CN(CC(C)O)c1ccccc1 (stereo not shown),-,-9.155
CCOc1ccc(C#N)cc1NC(=O)N1CCOC(C(N)=O)C1 (stereo not shown),-,-33.83
O=C(NCCNC(=O)c1scnc1Cl)c1cccs1,-53.65,-12.05
Cc1nc(-c2ncc(C(=O)NCCNc3ncccc3C)c(O)n2)cs1,-4.586,-33.5
CC1(C(=O)NCCc2ccc(F)cc2)CCOCC1,-,-0.2563
COCCCC(=O)NC1(c2cccc(Br)c2)CC1,-2.926,-6.97
O=C1CCOCCN1Cc1ccc(Cl)c(Cl)c1,-15.82,-37.36
Cc1cc(F)ccc1OC1(C(=O)O)CCN(Cc2cccnc2N)CC1,-25.95,2.054
Cc1cc(C)n(C2CN(Cc3noc(C4CC4)n3)C2)n1,7.043,-19.28
CC(C)(C)c1cc(NC(=O)NCCc2nnc3n2CCC3)c(C#N)s1,18.93,-24.53
CN1CCC(N(Cc2ccco2)S(=O)(=O)c2ccc(Cl)cc2)CC1,-14.31,2.101
CCNC(=O)C1CCN(Cc2ccc(C(=O)Nc3cnns3)cc2)C1 (stereo not shown),11.37,19.15
Cc1cc(C)n(CC2CCCN2C(=O)c2cnccn2)n1 (stereo not shown),-12.59,-21.56
Cc1nc(CN2CCN(C(=O)COCc3ccccc3)CC2)no1,10.63,-4.706
CO[C@H]1CN(Cc2ccccc2F)C[C@@]12CCCO2,-,-13.72
O=C(c1cnc(O)cn1)N(Cc1ccsc1)CC1CCCO1 (stereo not shown),8.614,-11.56
Cc1[nH]nc2ncc(C(=O)N3CCN(CC(C)O)CC3)cc12.Cl (stereo not shown),-23.78,-10.49
CC(C)n1ncc2c1NC(=O)CC21C(=O)Nc2c(Cl)cc(Br)cc21 (stereo not shown),-16.42,-5.744
CNc1ccnc(N(C)Cc2cc(-c3cccs3)n[nH]2)n1,23.13,-14.44
CN(C(=O)c1ccc[nH]1)C1CCC(NC(=O)OC(C)(C)C)CC1 (stereo not shown),13.69,13.23
CCS(=O)(=O)N1CCC(n2nc(-c3cc(C)oc3C)ccc2=O)CC1,-14.09,32.4
O=C(O)C(F)(F)F.O=C(O)c1c(-c2cccnc2)ncc2c1CCN(CC1CCOC1)C2 (stereo not shown),-75.5,-9.377
O=C1CC(c2ccc3c(c2)OCO3)c2c(n3ccsc3nc2=O)N1 (stereo not shown),11.54,-4.05
CCC(CC)N(Cc1ccc2c(c1)OCO2)C(=O)c1ccc(=O)n(C)c1,15.3,-9.725
O=C(CC1CCCO1)NCCc1ccc(Br)cc1F (stereo not shown),8.794,-8.022
COc1ccc(S(=O)(=O)N2CCC(Cn3ccnc3)CC2)cc1,46.36,-18
CC(NC1CCCC1)c1ccccc1-n1cccn1 (stereo not shown),-23.7,-25.01
Cc1cnc(N2C(=O)CSC2c2ccccc2)s1 (stereo not shown),7.465,17.79
Cc1ccc(NC(=O)c2ccc(N3CCCCC3)nn2)c(Cl)c1,-30.86,3.616
OC1CCN(CCCNc2nccc(C3CCCC3)n2)CC1,-,-9.734
O=C(CO)N1CCCC(c2cc(C(F)(F)F)[nH]n2)C1 (stereo not shown),1.656,28.88
O=C(NCCn1ccnc1)NCC(c1ccco1)N1CCCCC1 (stereo not shown),-,7.45
O=C(NC1CC1)C1CCc2nnc(-c3cccc(C(F)(F)F)c3)n21 (stereo not shown),-,-11.99
Cn1ncc(C(=O)N2CCOCC2)c1Cl,-,-22.36
CSCCc1c(-c2ccccc2)ncn1CC(C)(C)N1CCCC1,16.77,14.03
Cc1nc(C)n(C2CCCN(C(=O)Cc3n[nH]c4ccccc34)C2)n1 (stereo not shown),12.4,-24.82
O=c1cc(Cn2ccnc2)nc2n1CCCN(Cc1ccco1)C2,-43.27,-4.569

The last 4 entries again:

* Cn1ncc(C(=O)N2CCOCC2)c1Cl | B: -22.36%
* CSCCc1c(-c2ccccc2)ncn1CC(C)(C)N1CCCC1 | A: 16.77%; B: 14.03%
* Cc1nc(C)n(C2CCCN(C(=O)Cc3n[nH]c4ccccc34)C2)n1 (stereo not shown) | A: 12.4%; B: -24.82%
* O=c1cc(Cn2ccnc2)nc2n1CCCN(Cc1ccco1)C2 | A: -43.27%; B: -4.569%

From ChEMBL document CHEMBL3988442, “University of Dundee, Small-Polar-MMV Screening Library” (2021).